This passage reports binding results from PMC3160407.

These are yes or no findings as the source states them, for the method shown. For part of these data: Binding calls can cover weak binding; strength is not graded here.

Common to all, as to assay: two-hybrid; co-transformation of AH109 with bait plasmids (S-HDAg or its deletion mutants) and the prey plasmid hnRNPC(1-108); growth on SD/-Trp/-Leu/-Hist/-Ade/X-α-gal
Test [1] deals with GAL4BD/S-HDAg (63-97) (hepatitis delta virus).
The target of test [2] is GAL4BD/S-HDAg (98-195) (hepatitis delta virus).
Test [3] has as its target GAL4BD/S-HDAg (1-62) (hepatitis delta virus).

B1: GAL4AD/hnRNPC(1-108) (domain or fragment, UniProt P07910-2 1-108)
chain: MASNVTNKTDPRSMNSRVFIGNLNTLVVKKSDVEAIFSKYGKIVGCSVHKGFAFVQYVNERNARAAVAGEDGRMIAGQVLDINLAAEPKVNRGKAGVKRSAAEMYGSS
With B1, the binding result in test [1] is recorded as “no binding”; in test [2], “binds”; in test [3] it was “no binding”.
